From article PMC2676247
Results are given in words; binding and its absence hold for the method and conditions named. For part of these data: In cells and extracts the contact can be indirect. Some entries that bind do so weakly or less than the wild type.

Assays:
[1] = target: HTLV-1 Tax (expressed from pBC12-Tax) (HTLV-1) (UniProt P03409); assay: co-IP; Lysates of HEK293 cells transfected with pBC12-Tax (control pcDNA3); immunoprecipitated with anti-Tax (4C5) or anti-Sp1 antibody on rProtein G-agarose, 4°C; lysis buffer 20 mM Tris-Cl pH 7.5, 100 mM NaCl, 1 mM EDTA, 1.5 mM MgCl2, 0.5% Triton-X100; immunoblotted for Tax and Sp1
[2] = target: HTLV-1 Tax (in the HTLV-1-transformed T cell line MT4) (HTLV-1 (endogenous in MT4)) (UniProt P03409); assay: co-IP; Lysates of HTLV-1-transformed MT4 T cells (control Jurkat), 3 x 10^6 cells a sample; immunoprecipitated with anti-Tax or anti-Sp1 antibody as for HEK293; immunoblotted for Tax and Sp1
[3] = target: hexa-histidine-tagged Tax (TaxH6) (HTLV-1) (UniProt P03409); assay: pull-down; ~200 ng Sp1 with ~2 μg TaxH6 held on 30 μl Ni-NTA agarose beads; 20 mM Tris-Cl pH 7.5, 100 mM NaCl, 1 mM EDTA, 0.5% Triton-X100, 100 mM imidazole, 0.5 mg/ml BSA, 2 h at 4°C; Sp1 by immunoblot, Tax by Coomassie; both purified

Sp1 (endogenous, HEK293 cells) (from UniProt P08047 1-785)
binding [1]: binds

Sp1 (endogenous, MT4 cells) (from UniProt P08047 1-785)
binding [2]: binds

purified Sp1 (Promega) (from UniProt P08047 1-785)
binding [3]: binds
